Measured values taken from article PMC10163288.
The list shows a part of the results.

B1: il2ra_site2_3nfp_normal_mot_HHH_b1_00086_000000221_0001_38_54_H_._HHH_b2_06926_0001_0000200007_0000001_0 (protein)
chain: SSSSDHSEEYLRAALLLLEEAVEEGDREAARKHTKLARQLAESNRDEEILEELERLIEELESSSS
B2: il2ra_site2_2erj_normal_mot_HHH_b2_05804_000000098_0001_44_58_H_._HHH_b2_07773_af2_0001_0000500032_0000001_0 (protein)
chain: SSSSSDRKEAWEKVAEILAKAAHIRDEEEVEELLERAERVAEENNDEFLRRYVEFARRAFSSSSS
B3: il2ra_site2_2erj_sap_18_mot_HHH_b1_03924_000000147_0001_1_20_H_._d5df4b299ca3074c1b4ca371b633e360_0001_0001_0000200015_0000001_0_0001 (protein)
chain: SSSSDEELRELFRLAVELSHLVSEGDEEEFERLLEEVKRIAKELNSEAVEKILESLERLIKSSSS
B4: il2ra_site2_2erj_sap_18_mot_HHH_b2_08311_000000098_0001_42_56_H_._HHH_b2_02486_0001_0000400050_0000001_0_0001 (protein)
chain: SSSSDDREIERFRELFEELRRLFKEGDREEFEEVLEELEERAKEEGDPRLEVLVRFAKSALSSSS
B5: il2ra_site1_2b5i_normal_mot_HHH_b1_02271_000000068_0001_1_16_H_._HHH_b2_01721_af2_0001_0000300031_0000001_0_af2pred_dldesign_0_af2pred (protein)
chain: SSSSSSSVDERIEELIEQAKKEKDRRKALELLEEAHKLASAEGREDLLDEIEKLAKEISSSSSSS
B6: il2ra_site1_1z92_sap_11_mot_HHH_b2_07953_000000091_0001_18_34_H_._77b064c75c6d617534c80658c3c44cb1_0001_0001_0000300014_0000001_0_0001 (protein)
chain: SSSSDDEEWMRLAREVLRLLENGNPEEAKEVLEELKRLAEELGNRIAREMAERLEEVIEGSSSSS
B7: il2ra_site2_3nfp_sap_19_mot_HHH_b2_07840_000000026_0001_18_34_H_._HHH_b2_02633_af2_0002_0000100002_0000001_0_0001 (protein)
chain: SSSSSEEEEEVRRLIEEAEQLIKEGNPEEAEKVLLRAALLAWELNDTELWMAIAELILRLSSSSS
B8: il2ra_site2_3nfp_normal_mot_HHH_b2_00895_af2_000000099_0001_38_52_H_._HHH_b2_02024_0001_0000700036_0000001_0 (protein)
chain: SSSSDEELALEYAALAAKLHNDPELLEELEEAIEEAERHNDPRLREEALRIASELALKIATSSSS
B9: il2ra_site2_3nfp_normal_mot_HHH_b1_06797_000000164_0001_24_40_H_._HHH_b2_08062_0001_0000500023_0000001_0 (protein)
chain: SSSSSKAEEYLEAVVLVIELALEAGDRESARSSLEAAEQLAELLGDEELLERLEELKELVNSSSS
B10: il2ra_site1_2b5i_sap_24_mot_2cbe48e66a1f39b3fed734b245ab0a04_0001_000000015_0001_17_31_H_._HHH_b2_02027_0001_0000100002_0000001_0_0001_af2pred_dldesign_0_af2pre … (protein)
chain: SSSSDEAFDKVDELYKKALELRRQGKKEEAKKTLEEALAIAKEAGLEKIVAELQYLLEKLSSSSS
B11: il2ra_site2_2erj_sap_23_mot_HHH_b1_00071_af2_000000225_0001_40_56_H_._HHH_b2_05421_af2_0002_0000600047_0000001_0_0001 (protein)
chain: SSSDEEEKVKELIEEAEKLLEEGNPEEALEVLRRAATLAFELNDFELFSAIAELLEAIARASSSS
B12: il2ra_site2_3nfp_sap_23_mot_ems_3hM_287_af2_000000177_0001_46_64_H_._HHH_b2_01015_af2_0001_0000600024_0000001_0_0001 (protein)
chain: SSSSDEQVLEVVLEYAEAVAALRGDEELLERIEELAEEYKEEGDPRYVREVARLLAERATSSSSS
B13: il2ra_site2_2erj_sap_21_mot_HHH_b2_02303_000000050_0001_43_56_H_._HHH_b1_05172_0001_0000200005_0000001_0_0001_af2pred_0001_af2pred (protein)
chain: SSSSSSNLVQEWVRLLLEEAEKIPDPEERKRWLELAELAARRWNDEEAEEEVERVQEELGSSSSS
B14: il2ra_site1_1z92_normal_mot_c9a8daa1dfea21d1414aecde54be4f54_0001_1_af2_000000024_0001_32_46_H_._HHH_b2_06162_af2_0001_0000100010_0000001_0_af2pred_0001_af2pred … (protein)
chain: SSSSDLEEEAEKIVEEVVKKLGLSEEDREALEYDAEQALRAGISERAVRRVLERIAKLLRSSSSS
B15: il2ra_site1_1z92_sap_13_mot_HHH_b2_05172_af2_000000284_0001_1_18_H_._HHH_b2_08220_0001_0000700079_0000001_0_0001 (protein)
chain: SSSSSDESHRLAIEAMKRLLKLLKNGNEEEAERLLEEVRRELEELGDPTAVEDLENYARYASSSS
B16: il2ra_site1_2b5i_sap_21_mot_2716ad6c8bc1fbd6d66602f60a7d4a27_0001_af2_000000180_0001_34_48_H_._08fb8540337ca522751f7d88495ca23a_0001_1_0001_0000400024_0000001_0 … (protein)
chain: SSSSEEEEAAFLRRVTSAAYRLRGLGKEEAVKKVTELATKYLETKDPRYLEEIERLVEEALSSSS
B17: il2ra_site2_3nfp_normal_mot_HHH_b1_00660_af2_000000090_0001_40_57_H_._HHH_b2_00792_af2_0001_0000100007_0000001_0 (protein)
chain: SSSSDEEIEERVEELLERYERVPDPEERRKILQEAFRLAYEANDFELFALVVELREELERTSSSS
B18: il2ra_site2_3nfp_sap_15_mot_9b1ece5d1ebc94355a99c96473898622_0001_1_af2_000000184_0001_31_45_H_._e4cf1a0cdac3444faaf76a8efd5e30e5_0001_0001_0000800038_0000001_0 … (protein)
chain: SSSSSSRRMLEAAIRSLEILKERGDEERAKISVEYLRAAAALHGDEEALEFAERLLEELRSSSSS
B19: il2ra_site2_2erj_normal_mot_118502477c40609e6006f550458cdfaf_0001_af2_000000174_0001_16_29_H_._HHH_b1_02677_af2_0001_0000300009_0000001_0 (protein)
chain: SSSSDESVKAAEELAREAFERGDREELLLLLLFAELTAEASNDPELEELVEEIEQLLERLRSSSS
B20: il2ra_site2_3nfp_sap_23_mot_HHH_b2_04167_af2_000000037_0001_42_55_H_._0a54d8a7266968de9ae0346ffe2baff0_0001_af2_0001_0000100003_0000001_1_0001 (protein)
chain: SSSDEEELEKVLRQIREALEEGDEELLRELLRKAAQLVWEVNDPRLYMELAELLFEIAKKLSSSS
B21: il2ra_site1_1z92_normal_mot_01209686ea234b34325f918445e6eade_0001_af2_000000154_0001_18_33_H_._d30c92881be5d2f229e465dffc40e224_0001_af2_0001_0000300015_0000001 … (protein)
chain: DVEELLEELAEEGDPDALMALKDLRQAKELGVPPRNVLKAVLRALKKNGALTPELKEILEEVLKR
B22: il2ra_site2_2erj_normal_mot_HHH_b1_07975_000000000_0001_41_57_H_._HHH_eva_0077_af2_0001_0000200020_0000001_0 (protein)
chain: SSDEEEKVEEVEEYATELARKAGVSEEYIELLQRFVELNIKNGVSAEEAKKAAEIAIEIEAKLSS
B23: il2ra_site2_3nfp_normal_mot_HHH_b2_06144_000000151_0001_41_57_H_._HHH_b1_04887_0001_0000500055_0000001_0 (protein)
chain: SSSSDEVEEISVEYAEAVLILAEEANDPELLEELYRLVEQALSKLGDPRLEEILERLEELLSSSS
B24: il2ra_site2_3nfp_normal_mot_HHH_b2_00429_000000100_0001_21_37_H_._HHH_b2_03374_0001_0000300044_0000001_0_af2pred_0001_1_af2pred_swapped (protein)
chain: SSSSNHEEFALRAALISLKLAVEAGNEELVRRLYEDAERAAKNANDPEVLEELERVFEEFHSSSS

Target: il2ra, P01589
Experiment: yeast display titration

Apparent Kd, inactive:
B1 no binding seen
B2 no binding seen
B3 no binding seen
B4 no binding seen
B5 no binding seen
B6 no binding seen
B7 no binding seen
B8 no binding seen
B9 no binding seen
B10 no binding seen
B11 > 416 nM
B12 no binding seen
B13 no binding seen
B14 no binding seen
B15 no binding seen
B16 no binding seen
B17 no binding seen
B18 no binding seen
B19 no binding seen
B20 no binding seen
B21 no binding seen
B22 no binding seen
B23 no binding seen
B24 no binding seen

Reprinted at random: two records from the list
Apparent Kd, inactive:
B1 no binding seen
B12 no binding seen
